Taken from: PubChem BioAssay AID1224828 (NIAID, 2016)
Aim: 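Regulators linking TLR4 signalling to p65 nuclear translocation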 (primary screen). System: mouse RAW264.7 G9 macrophage reporter cells (GFP-p65, Tnf promoter-mCherry). Reagent: siRNA pool against mouse genes, 100 nM. Duration: 2 days siRNA transfection, then 40 min LPS before fixation. Challenge: LPS (Salmonella minnesota R595) at 10 ng/ml. Read-out: 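Microscopy ratio of nuclear to perinuclear-ring GFP-p65 signal, scaled to the plate median; gene score is the average of two replicate robust z-scores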. Scale: p65 translocation robust z-score: higher = more nuclear NF-kappaB p65 after LPS than the plate median; nuclear/cytoplasmic p65 ratio: higher = more nuclear NF-kappaB p65. Call rule: 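Called active when z exceeds 3.3 or falls under -1.56 (median of Tlr4 controls), giving activity score of at least 50; no calls for control wells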. Meaning of the calls: active = hit (p65 shift raised or lowered); inactive = no clear change.
Shown is a random part of about 17,000 deposited reagents. Of all reagents, 762 (4.5%) got an active call. 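Active calls include both raised and lowered p65 entry, mostly lowered; wells with fewer than 50 cells lack a z-score.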 The raw values are shown without normalisation. A number with no mark means an inactive call. Reagents against one gene are numbered here. Reagent sequences are not shown.

target | reagent | p65 translocation robust z-score | nuclear/cytoplasmic p65 ratio, rep 1 | nuclear/cytoplasmic p65 ratio, rep 2 | low cell count flag
Nomo1 | 1 | 1.39 | 1.64 | 1.56 | enough cells to score
Or2y16 | 1 | -0.94 | 1.46 | 1.31 | enough cells to score
Akap3 | 1 | -1.74 (active) | 1.34 | 1.16 | enough cells to score
Rdh19 | 1 | 0.06 | 1.34 | 1.23 | enough cells to score
Hcn1 | 1 | -0.05 | 1.39 | 1.4 | enough cells to score
Or2t45 | 1 | -1.68 (active) | 1.36 | 1.21 | enough cells to score
Cby1 | 1 | 1.29 | 1.68 | 1.36 | enough cells to score
Creb3 | 1 | -0.38 | 1.59 | 1.31 | enough cells to score
Rec8 | 1 | 1.12 | 1.73 | 1.62 | enough cells to score
Rab5if | 1 | – | 1.42 | 1.47 | fewer than 50 cells per well; well left out of scoring
Mylpf | 1 | -0.61 | 1.71 | 1.48 | enough cells to score
Asb16 | 1 | -1.06 | 1.34 | 1.43 | enough cells to score
Aqp12 | 1 | 1.1 | 1.6 | 2.03 | enough cells to score
Cenpo | 1 | – | 1.31 | 1.28 | fewer than 50 cells per well; well left out of scoring
Adsl | 1 | -0.27 | 1.59 | 1.57 | enough cells to score
Tcof1 | 1 | 0.89 | 1.69 | 1.59 | enough cells to score
Abhd2 | 1 | 0.16 | 1.77 | 1.51 | enough cells to score
Sf3b5 | 1 | – | 1.23 | 1.12 | fewer than 50 cells per well; well left out of scoring
Slc12a5 | 1 | 0.18 | 1.39 | 1.31 | enough cells to score
Mettl3 | 1 | -0.48 | 1.57 | 1.54 | enough cells to score
Rbmx | 1 | 2.25 | 1.7 | 1.49 | enough cells to score
Rps2 | 1 | -1.07 | 1.38 | 1.41 | enough cells to score
H2-DMb1 | 1 | 0.04 | 1.39 | 1.43 | enough cells to score
Eno3 | 1 | 0.23 | 1.43 | 1.46 | enough cells to score
Rab27a | 1 | 0.93 | 1.64 | 1.66 | enough cells to score
BC004004 | 1 | 1.89 | 1.92 | 2.09 | enough cells to score
G3bp1 | 1 | 0.17 | 1.48 | 1.41 | enough cells to score
Nxt2 | 1 | 0.42 | 1.33 | 1.61 | enough cells to score
Clcn7 | 1 | 0.5 | 1.4 | 1.44 | enough cells to score
Hoxa4 | 1 | -0.95 | 1.24 | 1.32 | enough cells to score
Or7g25 | 1 | – | 1.35 | 1.16 | fewer than 50 cells per well; well left out of scoring
Slc27a2 | 1 | 0.44 | 1.6 | 1.56 | enough cells to score
Sun5 | 1 | – | 0 | 1.17 | fewer than 50 cells per well; well left out of scoring
Kcnk4 | 1 | 0.93 | 1.73 | 1.51 | enough cells to score

Ordered by “p65 translocation robust z-score” (ascending): some entries from above
target | reagent | p65 translocation robust z-score | nuclear/cytoplasmic p65 ratio, rep 1 | nuclear/cytoplasmic p65 ratio, rep 2 | low cell count flag
Hoxa4 | 1 | -0.95 | 1.24 | 1.32 | enough cells to score
G3bp1 | 1 | 0.17 | 1.48 | 1.41 | enough cells to score
Nxt2 | 1 | 0.42 | 1.33 | 1.61 | enough cells to score
Clcn7 | 1 | 0.5 | 1.4 | 1.44 | enough cells to score

The list goes on:
target | reagent | p65 translocation robust z-score | nuclear/cytoplasmic p65 ratio, rep 1 | nuclear/cytoplasmic p65 ratio, rep 2 | low cell count flag
Spc25 | 1 | 0.58 | 1.71 | 1.69 | enough cells to score
Aoah | 1 | 0.15 | 1.67 | 1.61 | enough cells to score
Csnk2a2 | 1 | -1.28 | 1.55 | 1.17 | enough cells to score
Ifit2 | 1 | – | 0.969 | 1.16 | fewer than 50 cells per well; well left out of scoring
Psrc1 | 1 | 0.19 | 1.6 | 1.69 | enough cells to score
Ythdf2 | 1 | – | 1.21 | 1.07 | fewer than 50 cells per well; well left out of scoring
Il4ra | 1 | 1.7 | 1.72 | 1.59 | enough cells to score
Arc | 1 | -0.15 | 1.54 | 1.53 | enough cells to score
Bmx | 1 | -0.23 | 1.69 | 1.32 | enough cells to score
1700067K01Rik | 1 | 1.62 | 1.52 | 1.71 | enough cells to score
Tbcc | 1 | 0.19 | 1.49 | 1.6 | enough cells to score
Aven | 1 | -0.1 | 1.67 | 1.53 | enough cells to score
D930048N14Rik | 1 | 4.67 (active) | 2.22 | 1.62 | enough cells to score
Spop | 1 | -0.15 | 1.4 | 1.22 | enough cells to score
Strbp | 1 | – | 1.37 | 1.15 | fewer than 50 cells per well; well left out of scoring
Strbp | 2 | 1.15 | 1.4 | 1.74 | enough cells to score
Bfsp2 | 1 | 0.24 | 1.61 | 1.69 | enough cells to score
Cgnl1 | 1 | – | 1.12 | 1.26 | fewer than 50 cells per well; well left out of scoring
Zfr | 1 | – | 1.5 | 1.05 | fewer than 50 cells per well; well left out of scoring
1700018F24Rik | 1 | – | 1.4 | 0.98 | fewer than 50 cells per well; well left out of scoring
Lpar1 | 1 | – | 1.61 | 1.6 | fewer than 50 cells per well; well left out of scoring
Ppp1r3b | 1 | -1.13 | 1.29 | 1.31 | enough cells to score
Edn3 | 1 | 0.44 | 1.58 | 1.41 | enough cells to score
Ttc7 | 1 | – | 1.56 | 1.09 | fewer than 50 cells per well; well left out of scoring
Des | 1 | 1.72 | 1.81 | 1.81 | enough cells to score
